Data: PMC4674714
Results are given in words; binding and its absence hold for the method and conditions named. Binding seen in cells or lysates may run through a third protein. Some binding calls cover weakened binding; strength is not graded here.

Amino acid sequences for entries named in this document (tags omitted).
UniProt O08586: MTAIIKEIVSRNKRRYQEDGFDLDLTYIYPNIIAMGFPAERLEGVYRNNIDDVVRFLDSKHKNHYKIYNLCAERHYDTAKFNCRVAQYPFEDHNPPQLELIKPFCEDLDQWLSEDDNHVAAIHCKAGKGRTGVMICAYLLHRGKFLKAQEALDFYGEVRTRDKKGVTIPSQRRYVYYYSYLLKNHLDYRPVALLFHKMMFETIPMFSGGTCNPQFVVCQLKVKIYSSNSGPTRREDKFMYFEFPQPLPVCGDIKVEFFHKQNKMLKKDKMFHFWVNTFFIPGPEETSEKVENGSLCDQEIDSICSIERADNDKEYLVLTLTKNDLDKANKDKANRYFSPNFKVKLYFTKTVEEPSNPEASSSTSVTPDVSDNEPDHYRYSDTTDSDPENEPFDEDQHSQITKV
UniProt Q01320: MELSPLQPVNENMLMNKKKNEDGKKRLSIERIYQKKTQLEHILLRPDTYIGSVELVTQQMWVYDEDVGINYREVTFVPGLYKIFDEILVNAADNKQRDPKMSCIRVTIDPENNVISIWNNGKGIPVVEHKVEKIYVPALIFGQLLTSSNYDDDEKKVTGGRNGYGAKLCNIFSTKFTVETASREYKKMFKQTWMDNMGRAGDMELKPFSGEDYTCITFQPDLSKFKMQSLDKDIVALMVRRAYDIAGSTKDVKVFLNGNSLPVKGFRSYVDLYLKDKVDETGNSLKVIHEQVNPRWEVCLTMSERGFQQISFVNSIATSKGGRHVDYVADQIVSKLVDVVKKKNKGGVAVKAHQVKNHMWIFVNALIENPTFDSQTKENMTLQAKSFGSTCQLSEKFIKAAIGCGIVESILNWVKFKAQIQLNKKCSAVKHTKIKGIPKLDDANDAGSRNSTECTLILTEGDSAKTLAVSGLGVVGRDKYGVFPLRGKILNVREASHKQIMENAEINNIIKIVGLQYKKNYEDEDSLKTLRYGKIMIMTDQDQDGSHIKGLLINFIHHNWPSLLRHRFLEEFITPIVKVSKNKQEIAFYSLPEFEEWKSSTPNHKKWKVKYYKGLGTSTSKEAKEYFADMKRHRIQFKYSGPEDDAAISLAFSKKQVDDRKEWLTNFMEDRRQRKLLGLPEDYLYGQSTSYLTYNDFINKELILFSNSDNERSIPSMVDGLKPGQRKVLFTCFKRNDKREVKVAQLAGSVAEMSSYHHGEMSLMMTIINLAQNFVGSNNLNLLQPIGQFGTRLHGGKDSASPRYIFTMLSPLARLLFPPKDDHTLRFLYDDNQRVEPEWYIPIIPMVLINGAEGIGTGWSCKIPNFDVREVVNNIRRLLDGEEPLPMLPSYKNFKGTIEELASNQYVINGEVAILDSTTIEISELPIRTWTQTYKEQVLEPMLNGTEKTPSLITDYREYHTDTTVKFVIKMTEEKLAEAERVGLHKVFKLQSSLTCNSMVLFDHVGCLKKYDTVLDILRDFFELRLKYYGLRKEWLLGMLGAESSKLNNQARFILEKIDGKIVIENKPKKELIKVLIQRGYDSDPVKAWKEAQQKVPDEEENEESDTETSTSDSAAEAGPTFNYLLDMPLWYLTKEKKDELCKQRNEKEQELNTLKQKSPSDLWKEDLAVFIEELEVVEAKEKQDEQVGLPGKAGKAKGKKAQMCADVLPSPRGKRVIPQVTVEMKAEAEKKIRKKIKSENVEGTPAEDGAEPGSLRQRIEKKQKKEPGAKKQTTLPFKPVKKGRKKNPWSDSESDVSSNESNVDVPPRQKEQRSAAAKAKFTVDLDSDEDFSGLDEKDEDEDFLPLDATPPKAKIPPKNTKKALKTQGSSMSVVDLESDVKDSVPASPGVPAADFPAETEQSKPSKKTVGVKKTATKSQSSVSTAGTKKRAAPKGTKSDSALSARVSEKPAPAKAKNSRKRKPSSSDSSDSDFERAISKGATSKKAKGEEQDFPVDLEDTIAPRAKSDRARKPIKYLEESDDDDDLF

Legend:
[1] = biological target: Pten, endogenous mouse (mouse (endogenous in MEF)) (UniProt O08586); test: co-IP; endogenous proteins; cell lysates (NP40 lysis buffer with DNase I, 3 mg total protein) incubated overnight with antibody to PTEN or OTUD3, Protein A/G agarose, western blot
[2] = biological target: T1, Otud3, endogenous mouse (mouse (endogenous in MEF)) (UniProt B1AZ99); test: as above
T1 sequence: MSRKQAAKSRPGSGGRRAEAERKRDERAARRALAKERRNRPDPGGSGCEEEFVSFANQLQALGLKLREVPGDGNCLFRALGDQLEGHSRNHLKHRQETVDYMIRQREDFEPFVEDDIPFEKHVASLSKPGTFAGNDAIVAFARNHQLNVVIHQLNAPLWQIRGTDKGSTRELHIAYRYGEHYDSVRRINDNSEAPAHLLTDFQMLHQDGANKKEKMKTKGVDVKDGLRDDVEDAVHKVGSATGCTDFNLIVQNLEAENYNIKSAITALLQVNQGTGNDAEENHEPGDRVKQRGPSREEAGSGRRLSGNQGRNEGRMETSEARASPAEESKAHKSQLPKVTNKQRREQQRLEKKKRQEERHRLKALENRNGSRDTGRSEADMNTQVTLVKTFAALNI

binding [1]: binds | binding [2]: binds
Substance: Top2a, endogenous mouse (from UniProt Q01320 1-1528)
